Measurements reported in patent US9784740B2 (priority 2013, dated 2017).
Not every entry of the source has a single result; some have several. Only these are listed. The source may hold further records. Values given together differ for a reason that is not stated; they may come from other doses, times, organisms or constructs than stated.

Sequences of proteins named here, by UniProt entry; tags and fusion partners are left off.
UniProt P33535, whole entry: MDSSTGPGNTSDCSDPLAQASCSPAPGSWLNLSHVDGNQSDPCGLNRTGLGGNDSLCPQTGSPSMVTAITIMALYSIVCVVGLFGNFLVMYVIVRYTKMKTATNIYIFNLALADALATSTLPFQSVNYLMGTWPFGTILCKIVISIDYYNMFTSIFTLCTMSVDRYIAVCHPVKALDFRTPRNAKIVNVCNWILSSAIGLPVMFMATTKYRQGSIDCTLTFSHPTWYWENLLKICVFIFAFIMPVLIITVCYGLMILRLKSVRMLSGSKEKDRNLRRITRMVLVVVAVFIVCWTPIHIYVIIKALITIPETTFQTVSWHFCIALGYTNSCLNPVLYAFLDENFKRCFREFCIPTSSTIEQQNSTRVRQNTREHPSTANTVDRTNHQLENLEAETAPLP

Target: mu-opioid receptor (C6mu membranes) (Rattus norvegicus, UniProt P33535)
Assay: [35S]GTPγS binding in C6mu cell membranes
Format: biochemical
Conditions: BMS-986122 10 uM + BMS-986124 50 uM

COc1cc(Br)ccc1C1SCCN1S(=O)(=O)c1ccc(Cl)cc1 (stereo not shown)
DAMGO potency enhancement vs vehicle with co-addition of BMS-986122 and BMS-986124: 2 fold and less than 2 fold
